PubChem BioAssay AID1259254 | NCATS, 2017
The deposit covers about 59,000 reagents; below is a random part of them. About 1,550 of all reagents (2.6%) were called active. 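G2 share is only a proxy for re-replication; each gene was hit by three separate siRNAs, and active genes were retested.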 Unmarked entries are inactive. The numbers tell different reagents against one gene apart. Not all columns of the deposit are shown. Reagent sequences are not shown. Not stated in the record: the amount of reagent.

Assay: 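Gene knock-downs that lead to re-replication, shown by excess G2 DNA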 (primary screen)
System: human HCT116 colorectal cancer cells
Reagent: single siRNA against human genes
Timing: 3 days
Detection: 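Nuclei stained with Hoechst and imaged; cell-cycle phase assigned by DNA content; G2 share scaled per plate, non-targeting siRNA 0%, GMNN siRNA 100%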
Reading the numbers: G2 robust z-score and G2 cells, % of GMNN control: higher = more G2 cells, more excess DNA replication
Call rule: 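An siRNA counts as active if its G2 robust z-score lies at least 5 MADs above the screen median; here such calls match roughly 38% of GMNN control or more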

| target | reagent | G2 robust z-score | G2 cells, % of GMNN control |
| --- | --- | --- | --- |
| VSIG10L2 (V-set and immunoglobulin domain containing 10 like 2) | 1 | -0.132 | 2.04 |
| VSIG10L2 (V-set and immunoglobulin domain containing 10 like 2) | 2 | 1.57 | 14 |
| VSIG10L2 (V-set and immunoglobulin domain containing 10 like 2) | 3 | 1.62 | 14.4 |
| MANBAL (mannosidase beta like) | 1 | 0.908 | 9.36 |
| MANBAL (mannosidase beta like) | 2 | 1.21 | 11.4 |
| MANBAL (mannosidase beta like) | 3 | 1.27 | 11.9 |
| EPPIN (epididymal peptidase inhibitor) | 1 | -1.06 | -4.49 |
| EPPIN (epididymal peptidase inhibitor) | 2 | -0.221 | 1.41 |
| EPPIN (epididymal peptidase inhibitor) | 3 | 2.51 | 20.6 |
| NCAPD2 (non-SMC condensin I complex subunit D2) | 1 | 2.19 | 18.4 |
| NCAPD2 (non-SMC condensin I complex subunit D2) | 2 | 0.77 | 8.38 |
| NCAPD2 (non-SMC condensin I complex subunit D2) | 3 | -0.688 | -1.87 |
| ALG10B (ALG10 alpha-1,2-glucosyltransferase B) | 1 | -0.724 | -2.13 |
| ALG10B (ALG10 alpha-1,2-glucosyltransferase B) | 2 | -1.3 | -6.21 |
| ALG10B (ALG10 alpha-1,2-glucosyltransferase B) | 3 | 0.621 | 7.34 |
| MID2 (midline 2) | 1 | -0.815 | -2.77 |
| MID2 (midline 2) | 2 | 3.23 | 25.7 |
| MID2 (midline 2) | 3 | -0.92 | -3.5 |
| GALNT11 (polypeptide N-acetylgalactosaminyltransferase 11) | 1 | 1.94 | 16.6 |
| GALNT11 (polypeptide N-acetylgalactosaminyltransferase 11) | 2 | -0.394 | 0.195 |
| GALNT11 (polypeptide N-acetylgalactosaminyltransferase 11) | 3 | 2.09 | 17.7 |
| HCAR1 (hydroxycarboxylic acid receptor 1) | 1 | 4.39 | 33.9 |
| HCAR1 (hydroxycarboxylic acid receptor 1) | 2 | 0.0148 | 3.07 |
| HCAR1 (hydroxycarboxylic acid receptor 1) | 3 | 0.586 | 7.09 |
| TMEM177 (transmembrane protein 177) | 1 | -0.12 | 2.12 |
| TMEM177 (transmembrane protein 177) | 2 | -0.587 | -1.16 |
| TMEM177 (transmembrane protein 177) | 3 | 2.96 | 23.8 |
| TRAPPC9 (trafficking protein particle complex subunit 9) | 1 | 2.39 | 19.8 |
| TRAPPC9 (trafficking protein particle complex subunit 9) | 2 | 0.751 | 8.25 |
| TRAPPC9 (trafficking protein particle complex subunit 9) | 3 | 0.221 | 4.52 |
| H2AC12 (H2A clustered histone 12) | 1 | -0.493 | -0.501 |
| H2AC12 (H2A clustered histone 12) | 2 | 1.53 | 13.7 |
| H2AC12 (H2A clustered histone 12) | 3 | 1.42 | 13 |
| TTF2 (transcription termination factor 2) | 1 | -0.174 | 1.74 |
| TTF2 (transcription termination factor 2) | 2 | -1.15 | -5.15 |
| TTF2 (transcription termination factor 2) | 3 | 6.14 (active) | 46.2 |
| FAM228A (family with sequence similarity 228 member A) | 1 | 0.932 | 9.52 |
| FAM228A (family with sequence similarity 228 member A) | 2 | 0.62 | 7.33 |
| FAM228A (family with sequence similarity 228 member A) | 3 | 0.34 | 5.36 |
| DCLK2 (doublecortin like kinase 2) | 1 | -0.215 | 1.45 |
| DCLK2 (doublecortin like kinase 2) | 2 | 0.685 | 7.79 |
| DCLK2 (doublecortin like kinase 2) | 3 | -0.945 | -3.68 |
| FAM74A3 (family with sequence similarity 74 member A3) | 1 | -0.809 | -2.73 |
| FAM74A3 (family with sequence similarity 74 member A3) | 2 | 2.9 | 23.4 |
| FAM74A3 (family with sequence similarity 74 member A3) | 3 | 0.315 | 5.18 |
| JPH4 (junctophilin 4) | 1 | -1.06 | -4.51 |
| JPH4 (junctophilin 4) | 2 | -0.524 | -0.721 |
| JPH4 (junctophilin 4) | 3 | 1.85 | 16 |
| SYT13 (synaptotagmin 13) | 1 | 1.74 | 15.2 |
| SYT13 (synaptotagmin 13) | 2 | -1.45 | -7.24 |
| SYT13 (synaptotagmin 13) | 3 | 0.216 | 4.49 |
| NETO1 (neuropilin and tolloid like 1) | 1 | -0.571 | -1.05 |
| NETO1 (neuropilin and tolloid like 1) | 2 | -0.701 | -1.96 |
| NETO1 (neuropilin and tolloid like 1) | 3 | 0.289 | 5 |
| RPL36AP8 (ribosomal protein L36a pseudogene 8) | 1 | 6.05 (active) | 45.5 |
| RPL36AP8 (ribosomal protein L36a pseudogene 8) | 2 | 0.155 | 4.06 |
| RPL36AP8 (ribosomal protein L36a pseudogene 8) | 3 | 0.134 | 3.91 |
| MTHFD1LP1 (MTHFD1L pseudogene 1) | 1 | -0.17 | 1.77 |
| MTHFD1LP1 (MTHFD1L pseudogene 1) | 2 | -0.14 | 1.98 |
| MTHFD1LP1 (MTHFD1L pseudogene 1) | 3 | 0.233 | 4.61 |
| RPA4 (replication protein A4) | 1 | -1.43 | -7.1 |
| RPA4 (replication protein A4) | 2 | 1.07 | 10.5 |
| RPA4 (replication protein A4) | 3 | 0.753 | 8.26 |
| PRKAG3 (protein kinase AMP-activated non-catalytic subunit gamma 3) | 1 | -0.53 | -0.759 |
| PRKAG3 (protein kinase AMP-activated non-catalytic subunit gamma 3) | 2 | 0.851 | 8.96 |
| PRKAG3 (protein kinase AMP-activated non-catalytic subunit gamma 3) | 3 | -0.474 | -0.371 |
| ORAI1 (ORAI calcium release-activated calcium modulator 1) | 1 | -0.211 | 1.49 |
| ORAI1 (ORAI calcium release-activated calcium modulator 1) | 2 | -1.05 | -4.45 |
| ORAI1 (ORAI calcium release-activated calcium modulator 1) | 3 | 0.38 | 5.64 |

Laid out differently: 7 of the entries above
MANBAL (mannosidase beta like) #2
- G2 robust z-score: 1.21
- G2 cells, % of GMNN control: 11.4

MANBAL (mannosidase beta like) #3
- G2 robust z-score: 1.27
- G2 cells, % of GMNN control: 11.9

EPPIN (epididymal peptidase inhibitor) #1
- G2 robust z-score: -1.06
- G2 cells, % of GMNN control: -4.49

EPPIN (epididymal peptidase inhibitor) #2
- G2 robust z-score: -0.221
- G2 cells, % of GMNN control: 1.41

EPPIN (epididymal peptidase inhibitor) #3
- G2 robust z-score: 2.51
- G2 cells, % of GMNN control: 20.6

NCAPD2 (non-SMC condensin I complex subunit D2) #1
- G2 robust z-score: 2.19
- G2 cells, % of GMNN control: 18.4

NCAPD2 (non-SMC condensin I complex subunit D2) #2
- G2 robust z-score: 0.77
- G2 cells, % of GMNN control: 8.38
